{
  "sequences": {"note": "Amino acid sequences for entries named in this document (tags omitted). A change or cut given only in a name is not applied to a line headed by its entry. Residues count along the entry.", "UniProt Q9NU22": "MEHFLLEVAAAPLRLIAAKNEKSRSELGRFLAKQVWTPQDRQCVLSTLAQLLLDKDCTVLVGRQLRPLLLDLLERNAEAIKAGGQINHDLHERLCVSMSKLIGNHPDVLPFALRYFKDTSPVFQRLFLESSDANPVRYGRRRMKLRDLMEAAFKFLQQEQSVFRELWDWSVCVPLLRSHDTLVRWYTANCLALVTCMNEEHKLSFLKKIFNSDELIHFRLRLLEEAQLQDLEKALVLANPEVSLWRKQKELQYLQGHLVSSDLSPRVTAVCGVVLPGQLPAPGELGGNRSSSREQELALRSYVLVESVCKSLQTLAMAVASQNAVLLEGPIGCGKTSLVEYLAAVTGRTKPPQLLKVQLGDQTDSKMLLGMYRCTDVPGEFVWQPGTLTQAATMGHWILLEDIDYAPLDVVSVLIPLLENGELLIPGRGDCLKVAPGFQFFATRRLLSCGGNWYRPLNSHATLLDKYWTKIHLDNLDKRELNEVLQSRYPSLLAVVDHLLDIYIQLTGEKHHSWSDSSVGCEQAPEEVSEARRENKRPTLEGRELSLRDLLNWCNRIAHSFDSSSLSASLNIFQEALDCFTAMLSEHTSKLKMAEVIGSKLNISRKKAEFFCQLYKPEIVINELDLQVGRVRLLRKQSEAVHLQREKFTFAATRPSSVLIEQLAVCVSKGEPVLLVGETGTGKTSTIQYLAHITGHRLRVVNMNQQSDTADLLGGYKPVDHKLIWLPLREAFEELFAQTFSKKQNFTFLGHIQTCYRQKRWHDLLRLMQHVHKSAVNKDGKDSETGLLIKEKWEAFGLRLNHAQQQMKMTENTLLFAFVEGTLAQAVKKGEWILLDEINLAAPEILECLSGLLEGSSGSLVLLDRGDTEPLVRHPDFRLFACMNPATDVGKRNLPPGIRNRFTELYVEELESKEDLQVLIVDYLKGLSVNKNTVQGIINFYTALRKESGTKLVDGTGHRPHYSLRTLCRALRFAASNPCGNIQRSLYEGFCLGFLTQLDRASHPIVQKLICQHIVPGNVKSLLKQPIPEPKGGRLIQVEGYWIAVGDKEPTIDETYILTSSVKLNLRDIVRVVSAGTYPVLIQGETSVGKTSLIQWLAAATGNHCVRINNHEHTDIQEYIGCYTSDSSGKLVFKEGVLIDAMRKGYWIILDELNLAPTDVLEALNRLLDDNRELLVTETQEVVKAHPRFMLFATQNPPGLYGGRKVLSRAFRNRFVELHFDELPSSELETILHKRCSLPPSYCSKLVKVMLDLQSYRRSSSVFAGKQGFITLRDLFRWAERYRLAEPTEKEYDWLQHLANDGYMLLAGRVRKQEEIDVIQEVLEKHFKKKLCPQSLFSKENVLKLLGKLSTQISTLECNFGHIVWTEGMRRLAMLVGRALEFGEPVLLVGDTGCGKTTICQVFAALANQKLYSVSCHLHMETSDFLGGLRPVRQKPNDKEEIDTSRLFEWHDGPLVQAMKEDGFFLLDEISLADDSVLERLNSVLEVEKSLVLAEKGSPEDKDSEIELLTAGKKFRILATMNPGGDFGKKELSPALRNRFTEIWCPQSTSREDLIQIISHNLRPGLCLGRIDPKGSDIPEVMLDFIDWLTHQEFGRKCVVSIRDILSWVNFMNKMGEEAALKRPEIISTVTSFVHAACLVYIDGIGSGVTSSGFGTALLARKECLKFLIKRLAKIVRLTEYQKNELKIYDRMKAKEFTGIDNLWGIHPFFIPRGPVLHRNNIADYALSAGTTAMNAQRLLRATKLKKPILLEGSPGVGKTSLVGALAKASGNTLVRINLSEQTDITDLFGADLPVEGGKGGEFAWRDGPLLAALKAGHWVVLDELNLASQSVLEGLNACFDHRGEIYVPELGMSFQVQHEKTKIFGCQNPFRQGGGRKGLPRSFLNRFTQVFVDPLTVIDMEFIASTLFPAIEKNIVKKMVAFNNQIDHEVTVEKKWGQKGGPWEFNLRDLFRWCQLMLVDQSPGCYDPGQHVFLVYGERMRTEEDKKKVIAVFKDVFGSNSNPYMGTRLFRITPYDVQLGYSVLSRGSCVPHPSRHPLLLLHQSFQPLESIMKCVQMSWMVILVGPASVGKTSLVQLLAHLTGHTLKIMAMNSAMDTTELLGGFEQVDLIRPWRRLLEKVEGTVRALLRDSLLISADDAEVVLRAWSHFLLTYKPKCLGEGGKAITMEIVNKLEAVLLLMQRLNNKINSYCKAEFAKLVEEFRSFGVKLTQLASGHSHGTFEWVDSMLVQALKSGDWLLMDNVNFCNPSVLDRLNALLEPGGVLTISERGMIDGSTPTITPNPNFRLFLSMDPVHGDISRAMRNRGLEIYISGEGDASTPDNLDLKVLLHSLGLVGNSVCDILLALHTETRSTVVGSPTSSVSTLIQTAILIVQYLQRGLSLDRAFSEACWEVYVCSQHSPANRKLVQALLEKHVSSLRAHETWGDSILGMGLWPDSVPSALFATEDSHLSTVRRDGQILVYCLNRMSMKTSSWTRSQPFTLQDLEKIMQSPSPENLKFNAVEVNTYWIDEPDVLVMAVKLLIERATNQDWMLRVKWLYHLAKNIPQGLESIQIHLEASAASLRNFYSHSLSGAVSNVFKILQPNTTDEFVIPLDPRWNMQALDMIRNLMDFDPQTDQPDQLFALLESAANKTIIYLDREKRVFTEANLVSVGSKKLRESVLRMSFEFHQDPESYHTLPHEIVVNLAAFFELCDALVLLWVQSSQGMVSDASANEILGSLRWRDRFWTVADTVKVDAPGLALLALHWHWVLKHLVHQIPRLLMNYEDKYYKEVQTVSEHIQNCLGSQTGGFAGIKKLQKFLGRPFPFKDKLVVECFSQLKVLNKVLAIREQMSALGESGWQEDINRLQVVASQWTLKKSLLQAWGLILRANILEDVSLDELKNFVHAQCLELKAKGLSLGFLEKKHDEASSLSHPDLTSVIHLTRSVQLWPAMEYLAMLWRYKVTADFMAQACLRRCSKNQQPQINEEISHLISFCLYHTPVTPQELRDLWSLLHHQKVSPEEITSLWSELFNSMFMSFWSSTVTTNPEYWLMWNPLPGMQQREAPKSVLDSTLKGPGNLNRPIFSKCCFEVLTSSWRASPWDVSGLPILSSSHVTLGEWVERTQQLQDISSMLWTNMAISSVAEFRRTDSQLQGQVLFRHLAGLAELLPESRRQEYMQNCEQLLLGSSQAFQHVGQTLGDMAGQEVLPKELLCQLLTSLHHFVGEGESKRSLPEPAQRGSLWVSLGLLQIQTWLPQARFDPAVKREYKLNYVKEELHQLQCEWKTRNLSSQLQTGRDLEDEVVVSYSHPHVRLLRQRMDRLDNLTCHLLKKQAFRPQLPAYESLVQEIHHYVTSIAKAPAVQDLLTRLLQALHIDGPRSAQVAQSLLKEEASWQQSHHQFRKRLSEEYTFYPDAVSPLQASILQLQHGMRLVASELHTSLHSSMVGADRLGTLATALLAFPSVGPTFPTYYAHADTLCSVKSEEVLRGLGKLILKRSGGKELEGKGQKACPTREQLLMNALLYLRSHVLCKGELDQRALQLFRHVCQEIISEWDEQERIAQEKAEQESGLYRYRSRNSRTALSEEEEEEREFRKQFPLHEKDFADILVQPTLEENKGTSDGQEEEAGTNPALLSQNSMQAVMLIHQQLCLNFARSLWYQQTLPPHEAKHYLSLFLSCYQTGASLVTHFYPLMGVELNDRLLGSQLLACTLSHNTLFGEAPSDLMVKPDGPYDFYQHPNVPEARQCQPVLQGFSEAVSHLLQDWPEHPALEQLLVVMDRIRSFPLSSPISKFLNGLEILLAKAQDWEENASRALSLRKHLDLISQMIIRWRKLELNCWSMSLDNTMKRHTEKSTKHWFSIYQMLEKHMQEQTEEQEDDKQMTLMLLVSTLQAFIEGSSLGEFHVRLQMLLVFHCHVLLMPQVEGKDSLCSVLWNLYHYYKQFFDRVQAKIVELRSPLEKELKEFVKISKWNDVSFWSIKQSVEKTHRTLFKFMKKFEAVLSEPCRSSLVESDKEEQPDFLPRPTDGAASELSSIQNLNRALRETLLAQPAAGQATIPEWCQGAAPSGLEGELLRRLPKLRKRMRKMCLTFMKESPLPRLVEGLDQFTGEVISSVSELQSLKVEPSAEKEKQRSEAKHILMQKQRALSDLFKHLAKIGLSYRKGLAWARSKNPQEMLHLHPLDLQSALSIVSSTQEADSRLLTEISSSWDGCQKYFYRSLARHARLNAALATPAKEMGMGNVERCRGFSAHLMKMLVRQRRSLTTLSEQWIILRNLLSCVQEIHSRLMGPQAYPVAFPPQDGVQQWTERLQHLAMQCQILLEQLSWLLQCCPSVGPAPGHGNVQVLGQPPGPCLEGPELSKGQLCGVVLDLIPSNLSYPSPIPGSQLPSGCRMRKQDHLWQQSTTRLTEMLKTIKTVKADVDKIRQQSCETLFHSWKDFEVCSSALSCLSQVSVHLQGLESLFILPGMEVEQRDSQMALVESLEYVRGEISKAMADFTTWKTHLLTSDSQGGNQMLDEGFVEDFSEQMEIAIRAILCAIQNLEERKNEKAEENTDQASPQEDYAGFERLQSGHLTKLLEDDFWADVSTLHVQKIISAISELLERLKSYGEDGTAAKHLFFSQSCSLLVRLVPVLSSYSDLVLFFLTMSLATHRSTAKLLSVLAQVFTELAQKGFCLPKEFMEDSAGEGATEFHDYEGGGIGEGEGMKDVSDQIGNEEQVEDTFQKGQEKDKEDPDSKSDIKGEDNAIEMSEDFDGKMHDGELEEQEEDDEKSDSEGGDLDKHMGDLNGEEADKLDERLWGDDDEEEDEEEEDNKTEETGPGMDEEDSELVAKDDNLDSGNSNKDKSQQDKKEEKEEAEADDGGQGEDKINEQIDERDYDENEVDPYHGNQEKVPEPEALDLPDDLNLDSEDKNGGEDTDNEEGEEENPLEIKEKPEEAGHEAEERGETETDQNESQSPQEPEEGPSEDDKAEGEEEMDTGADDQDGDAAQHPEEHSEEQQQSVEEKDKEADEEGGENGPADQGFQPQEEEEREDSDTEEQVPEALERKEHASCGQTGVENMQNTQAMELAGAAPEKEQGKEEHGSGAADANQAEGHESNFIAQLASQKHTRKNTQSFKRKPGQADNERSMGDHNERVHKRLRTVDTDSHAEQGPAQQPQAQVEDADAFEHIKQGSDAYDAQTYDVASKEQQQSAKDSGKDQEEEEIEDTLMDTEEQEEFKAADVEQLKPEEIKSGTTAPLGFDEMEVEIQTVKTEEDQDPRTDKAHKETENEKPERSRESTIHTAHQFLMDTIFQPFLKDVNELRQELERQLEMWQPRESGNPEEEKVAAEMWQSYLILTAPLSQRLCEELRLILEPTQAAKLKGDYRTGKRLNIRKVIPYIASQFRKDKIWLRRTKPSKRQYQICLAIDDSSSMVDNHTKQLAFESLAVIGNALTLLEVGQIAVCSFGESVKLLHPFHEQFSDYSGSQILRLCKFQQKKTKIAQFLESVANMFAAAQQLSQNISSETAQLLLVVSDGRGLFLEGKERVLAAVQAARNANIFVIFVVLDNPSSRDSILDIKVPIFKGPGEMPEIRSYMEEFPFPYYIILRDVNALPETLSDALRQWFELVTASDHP", "UniProt Q02078, 95-114": "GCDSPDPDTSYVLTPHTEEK", "UniProt Q9NYP9": "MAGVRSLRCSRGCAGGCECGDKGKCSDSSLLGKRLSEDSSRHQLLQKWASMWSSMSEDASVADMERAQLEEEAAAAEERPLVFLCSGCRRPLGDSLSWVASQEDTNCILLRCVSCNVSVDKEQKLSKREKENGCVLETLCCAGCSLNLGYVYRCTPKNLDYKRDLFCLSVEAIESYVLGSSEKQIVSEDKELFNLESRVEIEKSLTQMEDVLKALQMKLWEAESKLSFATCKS", "UniProt Q15648, 428-449": "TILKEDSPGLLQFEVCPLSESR", "UniProt Q14680": "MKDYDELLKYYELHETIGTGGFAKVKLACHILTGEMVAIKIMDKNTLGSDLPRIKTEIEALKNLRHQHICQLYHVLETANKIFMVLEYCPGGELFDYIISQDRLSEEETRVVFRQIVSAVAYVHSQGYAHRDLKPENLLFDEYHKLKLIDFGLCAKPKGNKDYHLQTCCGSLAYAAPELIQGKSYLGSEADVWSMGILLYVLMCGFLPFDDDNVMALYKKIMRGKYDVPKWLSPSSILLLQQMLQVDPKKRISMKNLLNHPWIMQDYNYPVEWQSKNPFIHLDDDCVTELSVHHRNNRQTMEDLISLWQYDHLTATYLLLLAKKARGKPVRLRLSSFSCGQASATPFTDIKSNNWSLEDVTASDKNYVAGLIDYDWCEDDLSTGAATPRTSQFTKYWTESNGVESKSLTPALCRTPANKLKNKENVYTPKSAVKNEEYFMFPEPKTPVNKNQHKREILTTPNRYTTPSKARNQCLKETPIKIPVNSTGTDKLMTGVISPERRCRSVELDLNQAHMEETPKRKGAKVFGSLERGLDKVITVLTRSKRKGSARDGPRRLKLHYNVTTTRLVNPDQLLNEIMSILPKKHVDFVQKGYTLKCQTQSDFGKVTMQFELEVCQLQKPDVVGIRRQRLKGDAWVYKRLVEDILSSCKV", "UniProt P46013, 765-786": "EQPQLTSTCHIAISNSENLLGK", "UniProt Q7L2J0, 234-257": "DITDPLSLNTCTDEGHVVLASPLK"},
  "source": "the supplement of paper PMC11732987",
  "about": "“Enantioselective OTUD7B fragment discovery through chemoproteomics screening and high-throughput optimisation” (Communications Chemistry, 2025)",
  "note": "Some of the results follow. The data scatter; read single values as rough.",
  "data": [
    {"compound": "ClCC(=O)N[C@H]1CCCc2ccccc12", "test": "log2 mean competition ratio of IA-DTB cysteine labelling (DMSO/compound) (log2 ratio); higher = stronger cysteine engagement by compound", "settings": "50 µM; treatment time: 4 h; cell line lysate: HEK293T", "procedure": "(§1)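 IA-DTB competitive cysteine chemoproteomics in HEK293T RIPA lysate. Lysates were treated with compound 29 or 30 at 50 or 200 µM for 4 h, then IA-DTB (500 µM, 1 h), trypsin-digested, NeutrAvidin-enriched and analysed by diaPASEF. Competition ratio = intensity DMSO / intensity compound (n=4 treated, n=64 DMSO); binding: mean log2 CR ≥ 1 and p ≤ 0.05 plus QC filters. Target is the cysteine site.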", "values": [
      {"target": "MDN1 C1011 (UniProt Q9NU22)", "log2 mean competition ratio": -0.268},
      {"target": "MDN1 C1867 (UniProt Q9NU22)", "log2 mean competition ratio": -0.429},
      {"target": "MPHOSPH8 C753 (UniProt Q99549)", "log2 mean competition ratio": -0.215},
      {"target": "METTL17 C216 (UniProt Q9H7H0)", "log2 mean competition ratio": -0.0271},
      {"target": "MINDY3 C27 (UniProt Q9H8M7)", "log2 mean competition ratio": 0.0654},
      {"target": "MEF2A C96 (UniProt Q02078)", "log2 mean competition ratio": -0.0962},
      {"target": "MGA C1313 (UniProt Q8IWI9)", "log2 mean competition ratio": -0.184},
      {"target": "MED7 C223 (UniProt O43513)", "log2 mean competition ratio": -0.0376},
      {"target": "MIS18A C231 (UniProt Q9NYP9)", "log2 mean competition ratio": 0.595},
      {"target": "MED1 C443 (UniProt Q15648)", "log2 mean competition ratio": -0.325},
      {"target": "MIA3 C1513 (UniProt Q5JRA6)", "log2 mean competition ratio": 0.146},
      {"target": "MMACHC C149 (UniProt Q9Y4U1)", "log2 mean competition ratio": 0.174},
      {"target": "MELK C413 (UniProt Q14680)", "log2 mean competition ratio": 0.0738},
      {"target": "MED20 C120 (UniProt Q9H944)", "log2 mean competition ratio": -0.16},
      {"target": "MKI67 C773 (UniProt P46013)", "log2 mean competition ratio": 0.465},
      {"target": "MON2 C609 (UniProt Q7Z3U7)", "log2 mean competition ratio": 0.343},
      {"target": "MEPCE C244 (UniProt Q7L2J0)", "log2 mean competition ratio": 0.119},
      {"target": "MEPCE C419 (UniProt Q7L2J0)", "log2 mean competition ratio": 0.505},
      {"target": "MDN1 C979 (UniProt Q9NU22)", "log2 mean competition ratio": 0.117},
      {"target": "MET C1210 (UniProt P08581)", "log2 mean competition ratio": 0.0627}
    ]},
    {"compound": "ClCC(=O)N[C@H]1CCCc2ccccc12", "test": "log2 mean competition ratio of IA-DTB cysteine labelling (DMSO/compound) (log2 ratio); higher = stronger cysteine engagement by compound", "settings": "200 µM; treatment time: 4 h; cell line lysate: HEK293T", "procedure": "as §1", "values": [
      {"target": "MDN1 C1011 (UniProt Q9NU22)", "log2 mean competition ratio": -0.315},
      {"target": "MDN1 C1867 (UniProt Q9NU22)", "log2 mean competition ratio": 0.00749},
      {"target": "MPHOSPH8 C753 (UniProt Q99549)", "log2 mean competition ratio": -0.0322},
      {"target": "METTL17 C216 (UniProt Q9H7H0)", "log2 mean competition ratio": 0.0196},
      {"target": "MINDY3 C27 (UniProt Q9H8M7)", "log2 mean competition ratio": 0.0015},
      {"target": "MEF2A C96 (UniProt Q02078)", "log2 mean competition ratio": 0.124},
      {"target": "MGA C1313 (UniProt Q8IWI9)", "log2 mean competition ratio": -0.0889},
      {"target": "MED7 C223 (UniProt O43513)", "log2 mean competition ratio": -0.299},
      {"target": "MIS18A C231 (UniProt Q9NYP9)", "log2 mean competition ratio": 0.186},
      {"target": "MED1 C443 (UniProt Q15648)", "log2 mean competition ratio": 0.125},
      {"target": "MIA3 C1513 (UniProt Q5JRA6)", "log2 mean competition ratio": 0.0695},
      {"target": "MMACHC C149 (UniProt Q9Y4U1)", "log2 mean competition ratio": -0.221},
      {"target": "MELK C413 (UniProt Q14680)", "log2 mean competition ratio": 0.0929},
      {"target": "MED20 C120 (UniProt Q9H944)", "log2 mean competition ratio": 0.0865},
      {"target": "MKI67 C773 (UniProt P46013)", "log2 mean competition ratio": -0.173},
      {"target": "MON2 C609 (UniProt Q7Z3U7)", "log2 mean competition ratio": 0.0904},
      {"target": "MEPCE C244 (UniProt Q7L2J0)", "log2 mean competition ratio": -0.299},
      {"target": "MEPCE C419 (UniProt Q7L2J0)", "log2 mean competition ratio": 0.169},
      {"target": "MDN1 C979 (UniProt Q9NU22)", "log2 mean competition ratio": 0.0681},
      {"target": "MET C1210 (UniProt P08581)", "log2 mean competition ratio": 0.178}
    ]}
  ]
}
